These are yes or no findings as the source states them, for the method shown. Binding seen in cells or lysates may run through a third protein. Some results given as binding are weak or reduced against the parent protein; the word gives no strength.
Assays:
[1] = molecular target: GST-DJ-1 (UniProt Q99497); assay: pull-down; purified GST-DJ-1 incubated with Flag-PARP1 expressed from HEK293T cells; Pierce GST Protein Interaction Pull-Down Kit; blot with anti-Flag; only the target purified
[2] = molecular target: DJ-1 (endogenous) (human (endogenous in HEK293T, U2OS and primary skin fibroblasts)) (UniProt Q99497); assay: co-IP; endogenous proteins in 293T cells; lysate in IP lysis buffer incubated overnight at 4 °C with antibody-coated Dynabeads Protein G
[3] = molecular target: DJ-1 (endogenous) (human (endogenous in HEK293T, U2OS and primary skin fibroblasts)) (UniProt Q99497); assay: proximity ligation; in situ PLA (Duolink) on fixed U2OS cells, endogenous proteins, with and without ETO (10 µM, 30 min for DJ-1/γH2AX)
[4] = molecular target: DJ-1 ectopically expressed in HEK293T cells (UniProt Q99497); assay: co-IP; HEK293T cells ectopically expressing DJ-1; lysate in IP lysis buffer incubated overnight at 4 °C with antibody-coated Dynabeads Protein G; untreated or treated with ETO (10 µM) for the indicated times; Benzonase tested
[5] = molecular target: DJ-1 (endogenous) (human (endogenous in HEK293T, U2OS and primary skin fibroblasts)) (UniProt Q99497); assay: proximity ligation; in situ PLA (Duolink) on fixed primary human skin fibroblasts, endogenous proteins, with and without ETO (10 µM, 1 h)

Amino acid sequences for entries named in this document (tags omitted).
UniProt Q99497: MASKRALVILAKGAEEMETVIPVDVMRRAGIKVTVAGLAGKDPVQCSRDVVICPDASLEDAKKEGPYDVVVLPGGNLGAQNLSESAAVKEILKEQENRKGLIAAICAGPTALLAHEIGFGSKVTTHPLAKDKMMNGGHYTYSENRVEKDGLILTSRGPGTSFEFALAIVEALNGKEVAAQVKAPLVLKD
UniProt P09874: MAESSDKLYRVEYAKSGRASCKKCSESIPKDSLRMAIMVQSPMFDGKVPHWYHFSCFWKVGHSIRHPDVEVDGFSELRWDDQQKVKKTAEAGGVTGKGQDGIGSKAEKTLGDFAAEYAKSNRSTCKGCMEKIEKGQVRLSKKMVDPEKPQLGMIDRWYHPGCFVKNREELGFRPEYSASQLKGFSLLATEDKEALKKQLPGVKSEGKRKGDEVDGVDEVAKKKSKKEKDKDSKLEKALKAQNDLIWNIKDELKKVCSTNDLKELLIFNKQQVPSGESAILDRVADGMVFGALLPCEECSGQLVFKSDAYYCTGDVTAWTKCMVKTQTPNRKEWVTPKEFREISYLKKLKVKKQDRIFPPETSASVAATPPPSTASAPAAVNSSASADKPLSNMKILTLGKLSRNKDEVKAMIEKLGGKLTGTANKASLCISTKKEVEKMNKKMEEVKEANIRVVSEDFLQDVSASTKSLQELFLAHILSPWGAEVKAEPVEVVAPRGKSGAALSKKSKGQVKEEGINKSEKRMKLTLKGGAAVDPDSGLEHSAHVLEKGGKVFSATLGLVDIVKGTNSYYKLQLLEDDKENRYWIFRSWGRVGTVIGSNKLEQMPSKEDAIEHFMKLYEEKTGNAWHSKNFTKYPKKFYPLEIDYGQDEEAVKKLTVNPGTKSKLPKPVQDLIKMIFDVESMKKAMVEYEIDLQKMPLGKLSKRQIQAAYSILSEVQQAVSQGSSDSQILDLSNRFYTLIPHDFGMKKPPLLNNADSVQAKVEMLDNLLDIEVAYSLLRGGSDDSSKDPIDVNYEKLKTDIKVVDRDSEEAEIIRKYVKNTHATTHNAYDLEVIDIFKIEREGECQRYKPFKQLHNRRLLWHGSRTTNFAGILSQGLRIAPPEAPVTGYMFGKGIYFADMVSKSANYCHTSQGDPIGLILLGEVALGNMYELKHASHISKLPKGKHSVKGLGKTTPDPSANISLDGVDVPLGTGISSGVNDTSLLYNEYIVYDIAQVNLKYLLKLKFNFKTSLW

For “Flag-PARP1 (from UniProt P09874 1-1014) (enzyme)”, the binding [1] was “binds”.

For “PARP1 (endogenous) (from UniProt P09874 1-1014) (enzyme)”, the binding [2] was “binds”, the binding [3] was “binds” and the binding [4] was “binds”. The binding [5] was “binds”.

— PMC10218208
